Experiment: general procedure: Fmoc solid-phase peptide synthesis; Rink amide PS resin, PAL PS resin; Fmoc-Rink amide Tentagel resin; Fmoc-PAL-PS resin (TAMRA peptides); DIC / oxyma pure in NMP; PyAOP/DIPEA for TAMRA
Settings: whole synthesis, UPLC (Waters BEH C18, H2O/ACN + 0.05% TFA), scale of the general procedure 10 µmol (TAMRA-labelled peptides), approximately 10 mg resin
For “[K^ε4(TAMRA)K^ε19(C18diacid-γGlu-2xAdo)]PYY3-36”, the “final HPLC purity” value was 95.4%.
For “[K^ε4(TAMRA)K^ε30(C18diacid-γGlu-2xAdo)]PYY3-36”, the “final HPLC purity” value was 96.5%.
With “[K^ε4(TAMRA)K^ε33(C18diacid-γGlu-2xAdo)]PYY3-36” the “final HPLC purity” value was 91.1%.
With [K^ε22(C18diacid-γGlu-2xAdo)]PYY3-36 the “final HPLC purity” value was 95.0%.
With “[K^ε4(TAMRA)K^ε10(C18diacid-γGlu-2xAdo)]PYY3-36” the “final HPLC purity” value was 98.5%.
With “[K^ε4(TAMRA)K^ε30(C16diacid-γGlu-2xAdo)]PYY3-36” the “final HPLC purity” value was 99.2%.
In the case of “[K^ε4(TAMRA)K^ε30(C14diacid-γGlu-2xAdo)]PYY3-36”, the “final HPLC purity” value is reported as 98.5%.
In the case of [K^ε30(C14diacid-2xAdo)]PYY3-36, the “final HPLC purity” value is reported as 97.0%.
For “[K^ε4(TAMRA)K^ε25(C18diacid-γGlu-2xAdo)]PYY3-36”, the “final HPLC purity” value was 97.8%.
With “[K^ε4(TAMRA)K^ε7(C18diacid-γGlu-2xAdo)]PYY3-36” the “final HPLC purity” value was 95.0%.
For “[Ac, Arg^4, Gln^18,K^ε30(C18diacid-γGlu-2xAdo)]PYY3-36”, the “final HPLC purity” value was 95.3%.
